Molecules are shown by their SMILES. Where a name gives a salt, the structure may show the parent alone.

The data set concerns OATP1B2. Nature of the data set: Untargeted metabolomics of plasma and DRG, WT vs OATP1B2-deficient mice. The class given is in vivo, mouse. As to conditions: untargeted metabolomics, WT vs OATP1B2-deficient mice.
The mark [1] stands for this setting: supplement sheet "Figure 5B" (volcano plot).
The mark [2] stands for this setting: Figure 5B source data (volcano plot), log2 fold change of metabolite level.

The compound `CCCCCCCC/C=C\CCCCCCCC(=O)OC[C@@H](O)COP(=O)(O)OCCN` [1-oleoyl-GPE (18:1)] returned a Log2FoldChange under setting [1] of 1.036 and a Log2FoldChange (sheet "Figure 5C") of 0.08406.

Consider `CCCCCCCC/C=C\CCCCCCCC(=O)OC[C@@H](O)COP(=O)(O)OCC(O)CO` (stereo partly drawn) [1-oleoyl-GPG (18:1)*], for which the Log2FoldChange under setting [1] amounted to 3.034.

For the compound `CCCCCCCC/C=C\CCCCCCCC(=O)OC[C@@H](O)COP(=O)(O)OC1[C@H](O)[C@H](O)C(O)[C@H](O)[C@H]1O` (stereo partly drawn) [1-oleoyl-GPI (18:1)], the Log2FoldChange under setting [1] was found to be 0.903.

`CCCCCCCC/C=C\CCCCCCCC(=O)OC[C@@H](O)COP(=O)(O)OC[C@H](N)C(=O)O` [1-oleoyl-GPS (18:1)] showed a Log2FoldChange (sheet "Figure 5C") of 0.251.

Compound `CCCCCCCC/C=C\CCCCCCCC(=O)OCC(O)CO` (stereo not drawn) [1-oleoylglycerol (18:1)] displayed a Log2FoldChange (supplement sheet "Figure 5B") of -0.074.

In the case of `CCCCCC/C=C\CCCCCCCC(=O)OC[C@@H](O)COP(=O)([O-])OCC[N+](C)(C)C` [1-palmitoleoyl-GPC (16:1)*], the Log2FoldChange under setting [1] was 0.9782 and the Log2FoldChange (sheet "Figure 5C") worked out at 0.2016.

`CCCCCC/C=C\CCCCCCCC(=O)OCC(O)CO` (stereo not drawn) [1-palmitoleoylglycerol (16:1)*] yielded a Log2FoldChange (sheet "Figure 5C") of 0.2869.

Compound `CCCCC/C=C\C/C=C\CCCCCCCC(=O)O[C@H](COC(=O)CCCCCCCCCCCCCCC)COP(=O)([O-])OCC[N+](C)(C)C` [1-palmitoyl-2-linoleoyl-GPC (16:0/18:2)] returned a Log2FoldChange (supplement sheet "Figure 5B") of 0.1763.

With `CCCCC/C=C\C/C=C\CCCCCCCC(=O)O[C@H](COC(=O)CCCCCCCCCCCCCCC)COP(=O)(O)OCCN` [1-palmitoyl-2-linoleoyl-GPE (16:0/18:2)], the Log2FoldChange by setting is: (supplement sheet "Figure 5B") 0.1763; (sheet "Figure 5C") -0.2176.

Under setting [1], `CCCCC/C=C\C/C=C\CCCCCCCC(=O)O[C@H](COC(=O)CCCCCCCCCCCCCCC)COP(=O)(O)OC1C(O)C(O)C(O)C(O)C1O` (stereo partly drawn) [1-palmitoyl-2-linoleoyl-GPI (16:0/18:2)] displayed a Log2FoldChange of 0.251.

For the compound `CCCCCCCC/C=C\CCCCCCCC(=O)O[C@H](COC(=O)CCCCCCCCCCCCCCC)COP(=O)([O-])OCC[N+](C)(C)C` [1-palmitoyl-2-oleoyl-GPC (16:0/18:1)], the Log2FoldChange under setting [1] stood at 0.3785 and the Log2FoldChange (sheet "Figure 5C") was -0.1361.

With `CCCCCCCC/C=C\CCCCCCCC(=O)O[C@H](COC(=O)CCCCCCCCCCCCCCC)COP(=O)(O)OCCN` [1-palmitoyl-2-oleoyl-GPE (16:0/18:1)], the Log2FoldChange reads like this: under setting [1], 0.546; (sheet "Figure 5C") -0.2863.

Regarding `CCCCCCCC/C=C\CCCCCCCC(=O)O[C@H](COC(=O)CCCCCCCCCCCCCCC)COP(=O)(O)OC1[C@H](O)[C@H](O)C(O)[C@H](O)[C@H]1O` (stereo partly drawn) [1-palmitoyl-2-oleoyl-GPI (16:0/18:1)*], the Log2FoldChange under setting [1] is listed as 0.2869.

For `CCCCCCCC/C=C\CCCCCCCC(=O)O[C@H](COC(=O)CCCCCCCCCCCCCCC)COP(=O)(O)OC[C@H](N)C(=O)O` [1-palmitoyl-2-oleoyl-GPS (16:0/18:1)], the Log2FoldChange (sheet "Figure 5C") was -0.4739.

On to `CCCCCCCCCCCCCCCCCC(=O)O[C@H](COC(=O)CCCCCCCCCCCCCCC)COP(=O)([O-])OCC[N+](C)(C)C` [1-palmitoyl-2-stearoyl-GPC (16:0/18:0)], for which the Log2FoldChange reads like this: (supplement sheet "Figure 5B") 0.189; (sheet "Figure 5C") -0.3585.

As to `CCCCCCCCCCCCCCCC(=O)OC[C@@H](O)COP(=O)([O-])OCC[N+](C)(C)C` [1-palmitoyl-GPC (16:0)], the Log2FoldChange reads like this: under setting [1], 0.3674; (sheet "Figure 5C") 0.4005.

Take `CCCCCCCCCCCCCCCC(=O)OC[C@@H](O)COP(=O)(O)OCCN` [1-palmitoyl-GPE (16:0)]: the Log2FoldChange worked out at 0.7908 under setting [1] and 0.111 (sheet "Figure 5C").

Take `CCCCCCCCCCCCCCCC(=O)OCC(O)COP(=O)(O)OCC(O)CO` (stereo not drawn) [1-palmitoyl-GPG (16:0)*]: the Log2FoldChange reads like this: under setting [1], 2.433; (sheet "Figure 5C") 0.4005.

Regarding `CCCCCCCCCCCCCCCC(=O)OC[C@@H](O)COP(=O)(O)OC1[C@H](O)[C@H](O)C(O)[C@H](O)[C@H]1O` (stereo partly drawn) [1-palmitoyl-GPI (16:0)], the Log2FoldChange (supplement sheet "Figure 5B") is on record as 0.1763 and the Log2FoldChange (sheet "Figure 5C") worked out at 0.2016.

The compound `CCCCCCCCCCCCCCCC(=O)OCC(O)COP(=O)(O)OC[C@H](N)C(=O)O` (stereo partly drawn) [1-palmitoyl-GPS (16:0)*] had a Log2FoldChange (sheet "Figure 5C") of 0.251.

Take `CCCCCCCCCCCCCCCC(=O)OCC(O)CO` (stereo not drawn) [1-palmitoylglycerol (16:0)]: where the note is “sheet "Figure 5C"”, the Log2FoldChange was determined as 0.4005.

In the case of `O=C(O)Cc1cn([C@@H]2O[C@H](CO)[C@@H](O)[C@H]2O)cn1` [1-ribosyl-imidazoleacetate*], the Log2FoldChange is, setting by setting: under setting [1], 0.7137; (sheet "Figure 5C") 0.251.

With `CCCCC/C=C\C/C=C\CCCCCCCC(=O)O[C@H](COC(=O)CCCCCCCCCCCCCCCCC)COP(=O)(O)OCCN` [1-stearoyl-2-linoleoyl-GPE (18:0/18:2)*], where the note is “supplement sheet "Figure 5B"”, the Log2FoldChange was determined as 0.08406.

Under setting [1], `CCCCC/C=C\C/C=C\CCCCCCCC(=O)OC(COC(=O)CCCCCCCCCCCCCCCCC)COP(=O)(O)OC1C(O)C(O)C(O)C(O)C1O` (stereo not drawn) [1-stearoyl-2-linoleoyl-GPI (18:0/18:2)] had a Log2FoldChange of 0.3334.

With `CCCCCCCC/C=C\CCCCCCCC(=O)O[C@H](COC(=O)CCCCCCCCCCCCCCCCC)COP(=O)([O-])OCC[N+](C)(C)C` [1-stearoyl-2-oleoyl-GPC (18:0/18:1)], the Log2FoldChange runs as follows: under setting [1], 0.263; (sheet "Figure 5C") -0.1361.

`CCCCCCCC/C=C\CCCCCCCC(=O)O[C@H](COC(=O)CCCCCCCCCCCCCCCCC)COP(=O)(O)OCCN` [1-stearoyl-2-oleoyl-GPE (18:0/18:1)]: the Log2FoldChange is 0.275 under setting [1] and -0.3771 (sheet "Figure 5C").

Take `CCCCCCCCC=CCCCCCCCC(=O)OC(COC(=O)CCCCCCCCCCCCCCCCC)COP(=O)(O)OCC(O)CO` (stereo not drawn) [1-stearoyl-2-oleoyl-GPG (18:0/18:1)]: the Log2FoldChange under setting [1] came to 0.585.

With `CCCCCCCC/C=C\CCCCCCCC(=O)OC(COC(=O)CCCCCCCCCCCCCCCCC)COP(=O)(O)OC1C(O)C(O)C(O)C(O)C1O` (stereo not drawn) [1-stearoyl-2-oleoyl-GPI (18:0/18:1)*], under setting [1], the Log2FoldChange is given as 0.2388.

As to `CCCCCCCC/C=C\CCCCCCCC(=O)OC(COC(=O)CCCCCCCCCCCCCCCCC)COP(=O)(O)OCC(N)C(=O)O` (stereo not drawn) [1-stearoyl-2-oleoyl-GPS (18:0/18:1)], the Log2FoldChange (sheet "Figure 5C") is recorded as -0.5353.

For the compound `CCCCCCCCCCCCCCCCCC(=O)OC[C@@H](O)COP(=O)(O)OCCN` [1-stearoyl-GPE (18:0)], the Log2FoldChange under setting [1] was found to be 0.4222.

As for `CCCCCCCCCCCCCCCCCC(=O)OC[C@@H](O)COP(=O)(O)OC[C@@H](O)CO` [1-stearoyl-GPG (18:0)], the Log2FoldChange by setting is: under setting [1], 2.057; (sheet "Figure 5C") 0.08406.

As for `CCCCCCCCCCCCCCCCCC(=O)OC[C@@H](O)COP(=O)(O)OC1[C@H](O)[C@H](O)C(O)[C@H](O)[C@H]1O` (stereo partly drawn) [1-stearoyl-GPI (18:0)], the Log2FoldChange is reported as -0.2176 under setting [2] and 0.08406 (sheet "Figure 5C").

`CCCCCCCCCCCCCCCCCC(=O)OC[C@@H](O)COP(=O)(O)OC[C@H](N)C(=O)O` [1-stearoyl-GPS (18:0)*]: the Log2FoldChange (sheet "Figure 5C") was -0.1681.

`CO[C@@H]1[C@H](O)[C@@H](CO)O[C@H]1n1ccc(N)nc1=O` [2'-O-methylcytidine]: the Log2FoldChange is 0.1375 (supplement sheet "Figure 5B") and 0.189 (sheet "Figure 5C").

On to `CO[C@@H]1[C@H](O)[C@@H](CO)O[C@H]1n1ccc(=O)[nH]c1=O` [2'-O-methyluridine], for which the Log2FoldChange was -0.2176 under setting [2] and 0.433 (sheet "Figure 5C").

`Nc1ncnc2c1ncn2C1CC(O)C(CO)O1` (stereo not drawn) [2'-deoxyadenosine] returned a Log2FoldChange (sheet "Figure 5C") of 0.2016.

With `Nc1ccn([C@H]2C[C@H](O)[C@@H](CO)O2)c(=O)n1` [2'-deoxycytidine], the Log2FoldChange under setting [2] is recorded as -0.3219.

In turn, `O=c1[nH]cnc2c1ncn2[C@H]1C[C@H](O)[C@@H](CO)O1` [2'-deoxyinosine] came in with a Log2FoldChange (sheet "Figure 5C") of -0.1361.

Turning to `O=c1ccn([C@H]2C[C@H](O)[C@@H](CO)O2)c(=O)[nH]1` [2'-deoxyuridine], the Log2FoldChange is -0.1681 under setting [2] and -0.1361 (sheet "Figure 5C").

For the compound `CC(O)C(C)(O)C(=O)O` (stereo not drawn) [2,3-dihydroxy-2-methylbutyrate], the Log2FoldChange under setting [2] is listed as -0.2863.

On to `CC(C)(O)C(O)C(=O)O` (stereo not drawn) [2,3-dihydroxyisovalerate], for which the Log2FoldChange was 0.3561 under setting [1] and -0.1361 (sheet "Figure 5C").

On to `CC(C)(C)c1ccc(O)c(C(C)(C)C)c1` [2,4-di-tert-butylphenol], for which the Log2FoldChange (supplement sheet "Figure 5B") was found to be 0.05658.

On to `O=C(O)c1c(O)cccc1O` [2,6-dihydroxybenzoic acid], for which the Log2FoldChange was determined as 0.3785 under setting [1] and 0.3674 (sheet "Figure 5C").

Regarding `O=S(=O)(O)Oc1cccc2ccc(O)nc12` [2,8-quinolinediol sulfate], under setting [1], the Log2FoldChange worked out at 0.8319.

`CC(C(=O)O)c1ccc(O)cc1` (stereo not drawn) [2-(4-hydroxyphenyl)propionate] displayed a Log2FoldChange under setting [1] of 0.3785.

In turn, `COC1=C(O)[C@@H]([C@@H](O)CO)OC1=O` [2-O-methylascorbic acid] registered a Log2FoldChange (sheet "Figure 5C") of 0.

The compound `CC(=O)Nc1ccccc1OS(=O)(=O)O` [2-acetamidophenol sulfate] registered a Log2FoldChange under setting [1] of 0.2265.

As to `Cc1ccc(OS(=O)(=O)O)c(N)c1` [2-amino-p-cresol sulfate], the Log2FoldChange under setting [1] was 2.098.

Consider `NC(CCCC(=O)O)C(=O)O` (stereo not drawn) [2-aminoadipate], for which the Log2FoldChange is 0.09761 (supplement sheet "Figure 5B") and -0.152 (sheet "Figure 5C").

Turning to `CCC(N)C(=O)O` (stereo not drawn) [2-aminobutyrate], the Log2FoldChange under setting [2] was -0.2176.

With `CCCCCC(N)C(=O)O` (stereo not drawn) [2-aminoheptanoate], the Log2FoldChange (supplement sheet "Figure 5B") is -0.1047.

For the compound `CCCCCCC(N)C(=O)O` (stereo not drawn) [2-aminooctanoate], the Log2FoldChange by setting is: (supplement sheet "Figure 5B") -0.1047; (sheet "Figure 5C") -0.415.

In turn, `Nc1ccccc1OS(=O)(=O)O` [2-aminophenol sulfate] registered a Log2FoldChange (supplement sheet "Figure 5B") of 0.1763.

The values are drawn from paper PMC10443802 (JCI Insight, 2023).
